# Source: patent US7700318 (AMPROTEIN, dated 2010)
# Chains of the proteins cited; added tags and fusions are not shown. Residues count along the entry.
# UniProt P14778, residues 18-336: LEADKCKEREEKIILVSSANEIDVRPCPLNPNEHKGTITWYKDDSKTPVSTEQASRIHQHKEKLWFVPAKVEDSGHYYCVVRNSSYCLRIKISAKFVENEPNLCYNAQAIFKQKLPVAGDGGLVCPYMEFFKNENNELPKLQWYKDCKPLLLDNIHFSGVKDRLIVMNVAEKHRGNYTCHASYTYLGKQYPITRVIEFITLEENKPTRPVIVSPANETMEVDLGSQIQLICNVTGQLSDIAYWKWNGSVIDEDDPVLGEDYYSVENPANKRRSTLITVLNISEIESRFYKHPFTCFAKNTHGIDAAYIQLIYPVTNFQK
# UniProt P18510, residues 26-177: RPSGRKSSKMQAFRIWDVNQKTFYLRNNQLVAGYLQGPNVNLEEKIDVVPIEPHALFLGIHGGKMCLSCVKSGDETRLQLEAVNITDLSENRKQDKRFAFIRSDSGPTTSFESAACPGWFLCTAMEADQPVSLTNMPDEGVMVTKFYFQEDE
# Results are given in words; binding and its absence hold for the method and conditions named. Some binding calls cover weakened binding; strength is not graded here.
# How the values were obtained:
# [1] = target: recombinant human IL-1 receptor extracellular domain (human) (UniProt P14778); assay: ELISA: test proteins coated on 96-well plate, IL-1 receptor extracellular domain incubated at 37 C, rabbit anti human IL-1 receptor antibodies and goat anti rabbit HRP (FIG. 5)
# [2] = target: recombinant human IL-1 receptor extracellular domain (human) (UniProt P14778); assay: IL-1 receptor binding ELISA (FIG. 5)
substance,measurement,setting,value
IL-1ra (KINERET) (from UniProt P18510 26-177) (ligand),binding,[1],binds
same,binding,[2],binds
